Screening data, single-dose tests

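Phenotypic screen: M. tuberculosis growth, cholesterol and DPPC medium, 4 days; the read-out is not stated. Compounds at 50 µM. Higher reads as more growth inhibition (inferred: compounds with an IC50 in retests scored well above the rest). About 69,000 compounds were tested under these conditions; 0.54% (about 370) showed 50% or more at least once.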

The filed quantity is “Percent Effect” (%). The controls that fix the scale are not given in the record; negative values are as filed. This is an unselected part of the compounds tested. Two or more numbers in one place are separate tests of the same structure; such repeats can differ widely.

| # | compound | effect |
|---|---|---|
| 1 | `COc1ccc(NC(=O)Cn2nc(C)c(C)cc2=O)cc1` | -11.93 & -1.743 |
| 2 | `COC(=O)[C@H](C)NC(=O)Cc1c(C)nc2cc(=O)[nH]n2c1C` | 2.433 |
| 3 | `CCCc1noc(C(C)N2CCN(CCn3ccccc3=O)CC2)n1` (centres undefined) | -6.427 |
| 4 | `Cc1csc(CN2CCC[C@]3(C[C@@H](OCC4CC4)CO3)C2)n1.O=C(O)C(F)(F)F` | 2.679 |
| 5 | `CCc1cnc(C)nc1NCCSc1nnc(C)n1CC` | 4.611 |
| 6 | `CCCn1ncc(C(=O)NCCc2[nH]nc3c2CCCC3)c1C` | 3.717 |
| 7 | `COc1ccc(C(CC(=O)O)NC(=O)CCc2cccs2)cc1OC` (centres undefined) | 5.88 |
| 8 | `O=S(=O)(CCOc1ccc(F)cc1)Nc1cnn(CC(F)F)c1` | 20 |
| 9 | `COCCn1/c(=N\C(=O)CN(C)S(C)(=O)=O)sc2cc(Cl)ccc21` | -9.127 |
| 10 | `CC(C)C(=O)N1CCCC2(CCCN2CC2CCCC2)C1.O=C(O)C(F)(F)F` (centres undefined) | -16.97 |
| 11 | `COc1ccccc1N1CCN(C(=O)NC(C)c2nncn2C)CC1` (centres undefined) | -15 |
| 12 | `N#CCc1ccc(NC(=O)Cn2cc(I)cn2)cc1` | 10.71 |
| 13 | `Cl.c1cc(CC2CCCNC2)nc(NCCc2cnccn2)c1` (centres undefined) | 19.5 |
| 14 | `COc1ccc(C(=O)Nc2ccccc2C(C)C)c(OC)n1` | -18.34 |
| 15 | `O=C(O)C(F)(F)F.O=C1COC2(CCN(Cc3nccs3)CC2)CN1CC1CC1` | -28.17 & -5.755 |
| 16 | `O=c1[nH]cc(N2CCCCC2)c(=O)[nH]1` | -13.32 |
| 17 | `COCCn1ccnc1CN(Cc1ccccn1)CC(C)C` | 10.44 & 1.621 |
| 18 | `c1ccc(-c2cnc(CN3CCn4c(nnc4C4CC4)C3)o2)cc1` | -14.39 |
| 19 | `O=C(O)C(F)(F)F.O=C(O)C(F)(F)F.c1cncc(OCc2nnn3c2CN(Cc2ccsc2)CCC3)c1` | 2.255 |
| 20 | `CC(C)NC(=O)CSc1nc2c(cnn2CCO)c(=O)[nH]1` | -11.7 |
| 21 | `CC(CC(=O)NS(=O)(=O)c1ccc2c(c1)OCCO2)c1ccc(F)cc1` (centres undefined) | 1.146 |
| 22 | `O=C(O)C(F)(F)F.O=C(O)C(F)(F)F.[H][C@@]12CN(Cc3cccs3)C[C@]1([H])C(=O)N(CCN1CCCC1)C2` | -25.61 |
| 23 | `O=C(c1ccn(-c2ccccc2)n1)N1CCCC(n2cccn2)C1` (centres undefined) | 22.43 |
| 24 | `O=C(NC1CCCCC1)c1ccc(COCC(F)(F)F)o1` | 0.3623 |
| 25 | `Cc1cc2n(n1)CC(CNCc1ccccc1Cn1cccn1)CN2` (centres undefined) | 8.663 |
| 26 | `CCN(Cc1nonc1C)C(=O)c1ccc(Br)o1` | 5.501 |
| 27 | `COCCNc1ncc(-c2cc(C)no2)c(-c2ccco2)n1` | 14.77 & 28.55 |
| 28 | `COc1ccc(OCC2CCCN(c3nc(CO)cs3)C2)cc1` (centres undefined) | -6.442 & -4.904 |
| 29 | `O=C(O)C(F)(F)F.[H][C@@]12CCN(S(C)(=O)=O)[C@@]1([H])CCN2Cc1cc(C)c(C)o1` | -7.442 |
| 30 | `Cc1cccc(COCC2c3nnn(C)c3CCN2Cc2ccoc2)n1.O=C(O)C(F)(F)F.O=C(O)C(F)(F)F` (centres undefined) | -13.04 |
| 31 | `N#Cc1cccc(OCCN2CCC(C(=O)N3CCOCC3)CC2)c1` | -11.2 |
| 32 | `COc1cc(C(=O)NCc2ccc3c(c2)CCCN3C)cc(OC)c1Br` | 3.745 |
| 33 | `Cc1ccc(C2(C(=O)N3CCC(n4cc(C(C)O)nn4)CC3)CC2)cc1` (centres undefined) | 12.51 |
| 34 | `Cc1ccccc1CSCCn1nc2ccccn2c1=O` | 20.62 |
| 35 | `Cc1nc(NCc2scnc2-c2ccccc2)cc(C2CCNCC2)n1` | 39.64 |
| 36 | `Cc1cc2n(n1)CC(CNC1CCN(Cc3ccccn3)CC1)CN2` (centres undefined) | -4.195 |
| 37 | `CC(NC(=O)NCC1(c2ccc(Cl)cc2)CC1)c1nncn1C` (centres undefined) | 10.24 |
| 38 | `O=C(O)C(F)(F)F.O=C(O)C(F)(F)F.c1cc(CN2CCc3ncnc(C4CCOC4)c3CC2)ccn1` (centres undefined) | -7.758 |
| 39 | `Cc1cc(S(=O)(=O)NC(=O)CCc2cncc(F)c2)c(C)s1` | 12.77 |
| 40 | `CCC(C#N)NC(=O)COC1CCCCC1` (centres undefined) | 14.51 |
| 41 | `CNC(=O)CNC1CC2(CCN(c3ncccn3)CC2)c2ccccc21.O=C(O)C(F)(F)F.O=C(O)C(F)(F)F` (centres undefined) | 21.85 |
| 42 | `CS(=O)(=O)N1Cc2nc(C(=O)NCc3ccccc3)oc2C1` | 2.888 |
| 43 | `CC(C)(C)n1c(NC(=O)CNC(=O)NC2CC2)nc2ccccc21` | 3.084 |
| 44 | `CN1CCOC(CN(C(=O)CCc2cnn(C)c2)c2nccs2)C1` (centres undefined) | 13.82 |
| 45 | `Cc1n[nH]cc1CNC1CCN(c2ccc(F)cc2)CC1.Cl` | 7.637 |
| 46 | `Cc1cc(C2CCCN2S(=O)(=O)c2cnn(C)c2)on1` (centres undefined) | -17.98 |
| 47 | `Cc1nc(C(NC(=O)C2CCCC2)c2ccccc2F)no1` (centres undefined) | -9.395 |

The last 2 entries again:

Cc1cc(C2CCCN2S(=O)(=O)c2cnn(C)c2)on1 (centres undefined) read -17.98%.
Cc1nc(C(NC(=O)C2CCCC2)c2ccccc2F)no1 (centres undefined) read -9.395%.

The values are deposited in ChEMBL (CHEMBL3988442, “University of Dundee, Small-Polar-MMV Screening Library” (2021)).